Results reported in ChEMBL document CHEMBL4689842, “EUbOPEN Chemogenomics Library wave 1” (2021).
Some compounds may have been tested in ways that are not shown here. The source holds more than one record for some entries. They are shown here; other results are not. There may be further records. Results that share an entry do not match, cause unknown; some may be repeats, others may stem from another dose, organism or construct than stated.

Key:
Fibroblast = experiment: Multiplex assay against human fibroblast; type: toxicity, cell-based
U2OS = experiment: Multiplex assay against U2OS; type: toxicity, cell-based; details: human

CC(=O)N1CCc2ccc(N(C(=O)/C=C/c3cccc(C#N)c3)C3CCN(CCC4CCCC4)CC3)cc21
Population Healthy Nuclei (%) (Fibroblast; 0 h, 1 µM): 34% and 72%
Population Pyknosed Nuclei (%) (Fibroblast; 0 h, 1 µM): 33% and 9%
Total Cell Count (Fibroblast; 0 h, 1 µM): 189 and 90
Population Fragmented Nuclei (%) (Fibroblast; 0 h, 10 µM): 42% and 20%
Population Healthy Nuclei (%) (Fibroblast; 0 h, 10 µM): 20% and 60%
Population Membrane Permeable-Phenotype (%) (Fibroblast; 0 h, 10 µM): 5% and 2%
Population Tubulin-Different-Phenotype (%) (Fibroblast; 0 h, 10 µM): 11% and 27%
Population Pyknosed Nuclei (%) (Fibroblast; 12 h, 1 µM): 37% and 12%
Population Tubulin-Different-Phenotype (%) (Fibroblast; 12 h, 1 µM): 75% and 13%
Population Fragmented Nuclei (%) (Fibroblast; 12 h, 10 µM): 45% and 6%
Population Healthy Nuclei (%) (Fibroblast; 12 h, 10 µM): 25% and 73%
Population Hoechst High Intensity Objects (%) (Fibroblast; 12 h, 10 µM): 16% and 6%
Population Fragmented Nuclei (%) (Fibroblast; 24 h, 1 µM): 27% and 9%
Population Membrane Permeable-Phenotype (%) (Fibroblast; 24 h, 1 µM): 16% and 2%
Population Mitochondria Different-Phenotype (%) (Fibroblast; 24 h, 1 µM): 29% and 7%
Population Tubulin-Different-Phenotype (%) (Fibroblast; 24 h, 1 µM): 85% and 20%
Population Fragmented Nuclei (%) (Fibroblast; 24 h, 10 µM): 44% and 12%
Population Hoechst High Intensity Objects (%) (Fibroblast; 24 h, 10 µM): 23% and 4%
Population Mitochondria Different-Phenotype (%) (Fibroblast; 48 h, 1 µM): 12% and 2%
Total Cell Count (Fibroblast; 48 h, 1 µM): 236 and 117
Population Hoechst High Intensity Objects (%) (Fibroblast; 48 h, 10 µM): 16% and 36%
Population Membrane Permeable-Phenotype (%) (Fibroblast; 48 h, 10 µM): 3% and 10%
Population Mitochondria Different-Phenotype (%) (Fibroblast; 48 h, 10 µM): 35% and 75%
Total Cell Count (Fibroblast; 48 h, 10 µM): 200 and 84
Population Membrane Permeable-Phenotype (%) (U2OS; 0 h, 1 µM): 5% and 2%
Population Membrane Permeable-Phenotype (%) (U2OS; 0 h, 10 µM): 5% and 2%
Population Mitochondria Different-Phenotype (%) (U2OS; 0 h, 10 µM): 22% and 8%
Total Cell Count (U2OS; 0 h, 10 µM): 310 and 53
Population Membrane Permeable-Phenotype (%) (U2OS; 12 h, 1 µM): 6% and 2%
Population Mitochondria Different-Phenotype (%) (U2OS; 12 h, 1 µM): 49% and 18%
Population Tubulin-Different-Phenotype (%) (U2OS; 12 h, 1 µM): 61% and 13%
Population Membrane Permeable-Phenotype (%) (U2OS; 12 h, 10 µM): 24% and 63%
Total Cell Count (U2OS; 12 h, 10 µM): 54 and 269
Population Membrane Permeable-Phenotype (%) (U2OS; 24 h, 1 µM): 5% and 2%
Population Mitochondria Different-Phenotype (%) (U2OS; 24 h, 1 µM): 50% and 7%
Population Tubulin-Different-Phenotype (%) (U2OS; 24 h, 1 µM): 43% and 20%
Population Membrane Permeable-Phenotype (%) (U2OS; 24 h, 10 µM): 22% and 88%
Total Cell Count (U2OS; 24 h, 10 µM): 60 and 302
Population Pyknosed Nuclei (%) (U2OS; 48 h, 1 µM): 8% and 19%
Population Membrane Permeable-Phenotype (%) (U2OS; 48 h, 10 µM): 98% and 47%
Population Mitotic Cells (%) (U2OS; 48 h, 10 µM): 6% and 35%
Total Cell Count (U2OS; 48 h, 10 µM): 383 and 73
